How the values were obtained:
Type in all cases: cell-based
[1] = tested on: HB-214; assay: 60-agent chemical screen, cell viability (Cell-Titer Glo), HB-214; settings: Homo sapiens; 60-agent screen, 72 hours; a value of 10,000 indicates that the drug did not inhibit viability; read-out: absolute IC50, HB-214;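 further: viability read as luminescence once Cell-Titer Glo 2.0 reagent was added to drug-treated cells in 384-well plates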
[2] = tested on: HepG2; assay: 60-agent chemical screen, cell viability (Cell-Titer Glo), HepG2; settings: Homo sapiens, 60-agent screen, 72 hours, a value of 10,000 indicates that the drug did not inhibit viability, read-out: absolute IC50, HepG2;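 further: luminescence read-out in 384-well plates, with cells plated directly onto drug dilutions of known concentration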
[3] = tested on: Huh-6; assay: 60-agent chemical screen, cell viability (Cell-Titer Glo), Huh-6; settings: Homo sapiens, 60-agent screen, 72 hours, a value of 10,000 indicates that the drug did not inhibit viability, read-out: absolute IC50, Huh-6

IC50 [2]: 8 nM
IC50 [3]: 10 nM
SMILES: CCc1cnn2c(NCc3ccc[n+]([O-])c3)cc(N3CCCC[C@H]3CCO)nc12 [dinaciclib]
IC50 [1]: > 10 µM

Reference: article PMC6849653, “Volasertib preclinical activity in high-risk hepatoblastoma” (Oncotarget, 2019)
